Drawing on publication PMC9931222, this text covers binding for five molecules.

The chains behind the UniProt entries cited, without tags or fusion partners.
UniProt P46940: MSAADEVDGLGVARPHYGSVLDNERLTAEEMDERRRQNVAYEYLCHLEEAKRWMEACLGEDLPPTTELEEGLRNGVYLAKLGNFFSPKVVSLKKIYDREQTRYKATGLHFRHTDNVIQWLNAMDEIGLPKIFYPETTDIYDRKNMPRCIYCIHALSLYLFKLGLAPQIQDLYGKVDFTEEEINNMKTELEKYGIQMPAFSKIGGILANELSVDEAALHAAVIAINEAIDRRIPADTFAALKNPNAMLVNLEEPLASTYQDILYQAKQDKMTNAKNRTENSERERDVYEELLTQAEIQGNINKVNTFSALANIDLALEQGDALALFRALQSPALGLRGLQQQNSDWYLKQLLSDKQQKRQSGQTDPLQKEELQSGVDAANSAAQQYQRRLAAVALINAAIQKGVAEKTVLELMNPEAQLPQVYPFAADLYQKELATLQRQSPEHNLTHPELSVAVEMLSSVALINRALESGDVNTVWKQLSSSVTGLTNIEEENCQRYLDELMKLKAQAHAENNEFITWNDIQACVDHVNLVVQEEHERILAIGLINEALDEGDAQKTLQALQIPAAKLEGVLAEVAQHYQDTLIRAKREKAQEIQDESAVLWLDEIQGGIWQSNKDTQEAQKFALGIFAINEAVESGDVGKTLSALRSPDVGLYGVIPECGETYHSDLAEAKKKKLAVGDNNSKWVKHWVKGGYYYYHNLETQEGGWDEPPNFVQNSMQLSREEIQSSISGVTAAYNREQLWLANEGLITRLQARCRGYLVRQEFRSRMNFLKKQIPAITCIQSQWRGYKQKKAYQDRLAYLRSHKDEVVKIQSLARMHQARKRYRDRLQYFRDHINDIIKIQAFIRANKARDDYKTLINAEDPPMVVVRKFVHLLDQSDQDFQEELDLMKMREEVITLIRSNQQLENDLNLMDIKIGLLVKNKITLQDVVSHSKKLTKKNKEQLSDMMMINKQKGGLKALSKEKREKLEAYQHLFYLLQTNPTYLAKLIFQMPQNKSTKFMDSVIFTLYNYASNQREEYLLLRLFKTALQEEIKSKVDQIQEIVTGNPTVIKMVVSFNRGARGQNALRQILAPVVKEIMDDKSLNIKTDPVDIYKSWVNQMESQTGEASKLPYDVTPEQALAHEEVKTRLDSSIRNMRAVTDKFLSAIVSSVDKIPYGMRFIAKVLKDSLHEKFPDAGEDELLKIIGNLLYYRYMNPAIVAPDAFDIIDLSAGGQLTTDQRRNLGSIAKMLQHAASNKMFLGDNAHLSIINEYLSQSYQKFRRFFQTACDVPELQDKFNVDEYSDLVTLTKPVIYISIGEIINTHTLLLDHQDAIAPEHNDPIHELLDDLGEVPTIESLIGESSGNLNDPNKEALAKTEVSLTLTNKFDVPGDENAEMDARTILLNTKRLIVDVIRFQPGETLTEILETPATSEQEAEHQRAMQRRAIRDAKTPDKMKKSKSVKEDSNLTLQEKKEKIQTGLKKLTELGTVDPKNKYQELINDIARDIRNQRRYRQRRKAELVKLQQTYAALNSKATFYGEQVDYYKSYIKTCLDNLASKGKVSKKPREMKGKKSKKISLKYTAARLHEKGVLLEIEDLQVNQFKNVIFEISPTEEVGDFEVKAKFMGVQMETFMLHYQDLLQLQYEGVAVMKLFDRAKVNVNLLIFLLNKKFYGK
UniProt P15056: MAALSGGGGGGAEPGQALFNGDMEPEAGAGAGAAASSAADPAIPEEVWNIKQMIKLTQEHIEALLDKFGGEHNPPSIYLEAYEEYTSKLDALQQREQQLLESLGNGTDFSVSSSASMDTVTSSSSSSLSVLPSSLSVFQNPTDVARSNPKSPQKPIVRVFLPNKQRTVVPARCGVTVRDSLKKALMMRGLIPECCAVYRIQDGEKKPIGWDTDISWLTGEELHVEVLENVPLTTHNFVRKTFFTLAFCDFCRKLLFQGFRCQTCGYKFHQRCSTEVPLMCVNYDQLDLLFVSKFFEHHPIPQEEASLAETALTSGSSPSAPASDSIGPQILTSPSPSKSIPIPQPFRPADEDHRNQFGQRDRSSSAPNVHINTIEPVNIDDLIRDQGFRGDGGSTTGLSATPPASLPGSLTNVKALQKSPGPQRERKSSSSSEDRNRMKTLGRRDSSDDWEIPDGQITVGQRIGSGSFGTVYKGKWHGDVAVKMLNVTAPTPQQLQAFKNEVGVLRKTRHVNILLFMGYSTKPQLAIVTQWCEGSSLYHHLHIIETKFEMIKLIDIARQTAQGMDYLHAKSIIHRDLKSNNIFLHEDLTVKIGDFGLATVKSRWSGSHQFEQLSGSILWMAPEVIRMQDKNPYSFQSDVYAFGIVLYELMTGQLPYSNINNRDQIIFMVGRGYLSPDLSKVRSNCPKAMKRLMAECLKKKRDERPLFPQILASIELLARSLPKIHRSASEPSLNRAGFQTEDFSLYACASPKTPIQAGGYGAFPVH

Results are given in words; binding and its absence hold for the method and conditions named. For some of these results: In cells and extracts the contact can be indirect. Some results given as binding are weak or reduced against the parent protein; the word gives no strength. For some of these results: Sequences can lack the tags named with a protein.

The target of assay [1] is T1, Flag-tagged wild-type KSR1 (kinase suppressor of Ras 1) (UniProt Q61097).
T1 sequence: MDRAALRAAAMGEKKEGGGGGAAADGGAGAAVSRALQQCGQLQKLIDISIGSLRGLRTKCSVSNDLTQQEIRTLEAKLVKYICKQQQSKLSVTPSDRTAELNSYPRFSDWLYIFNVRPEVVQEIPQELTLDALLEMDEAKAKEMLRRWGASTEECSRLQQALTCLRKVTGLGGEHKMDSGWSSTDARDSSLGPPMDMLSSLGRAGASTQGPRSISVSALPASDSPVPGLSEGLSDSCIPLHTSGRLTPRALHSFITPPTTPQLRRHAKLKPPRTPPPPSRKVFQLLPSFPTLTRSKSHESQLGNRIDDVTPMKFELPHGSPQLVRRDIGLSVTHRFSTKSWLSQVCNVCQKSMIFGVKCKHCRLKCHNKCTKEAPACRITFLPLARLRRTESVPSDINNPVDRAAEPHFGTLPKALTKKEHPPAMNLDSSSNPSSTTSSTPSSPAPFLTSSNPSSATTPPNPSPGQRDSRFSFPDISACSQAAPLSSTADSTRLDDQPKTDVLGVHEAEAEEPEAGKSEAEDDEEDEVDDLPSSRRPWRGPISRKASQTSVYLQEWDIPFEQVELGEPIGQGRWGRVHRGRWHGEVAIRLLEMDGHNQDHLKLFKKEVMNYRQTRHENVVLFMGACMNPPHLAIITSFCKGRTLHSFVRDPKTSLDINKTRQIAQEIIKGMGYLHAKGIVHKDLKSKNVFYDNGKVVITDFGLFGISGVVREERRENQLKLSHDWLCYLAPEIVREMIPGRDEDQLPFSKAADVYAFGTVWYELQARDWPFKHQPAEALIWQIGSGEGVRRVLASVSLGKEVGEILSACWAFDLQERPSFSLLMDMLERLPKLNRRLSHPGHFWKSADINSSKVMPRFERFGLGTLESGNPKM
The assay can be described thus: co-IP; HEK293T transfected with Flag-tagged KSR1 constructs (1.5 μg); starved 18 h, EGF 50 ng/ml 5 min or co-transfected HRAS^V12 (APS-2-79 in Fig. 8B); anti-Flag immunoprecipitation, Western blot of associated cellular proteins; no IQGAP1 overexpressed. (In general: In western blotting, separated proteins are transferred to a membrane and probed.)

In assay [2] the target is T1, Flag-tagged wild-type KSR1 (kinase suppressor of Ras 1). The assay can be described thus: co-IP; HEK293T transfected with Myc-tagged IQGAP1 constructs and Flag-tagged KSR1 constructs (1.5 μg); starved 18 h, EGF 50 ng/ml 5 min; anti-Flag immunoprecipitation, anti-Myc immunoblotting.
Assay [3] addresses T2, Flag-tagged KSR1 construct 1 to 521 (UniProt Q61097).
T2 sequence: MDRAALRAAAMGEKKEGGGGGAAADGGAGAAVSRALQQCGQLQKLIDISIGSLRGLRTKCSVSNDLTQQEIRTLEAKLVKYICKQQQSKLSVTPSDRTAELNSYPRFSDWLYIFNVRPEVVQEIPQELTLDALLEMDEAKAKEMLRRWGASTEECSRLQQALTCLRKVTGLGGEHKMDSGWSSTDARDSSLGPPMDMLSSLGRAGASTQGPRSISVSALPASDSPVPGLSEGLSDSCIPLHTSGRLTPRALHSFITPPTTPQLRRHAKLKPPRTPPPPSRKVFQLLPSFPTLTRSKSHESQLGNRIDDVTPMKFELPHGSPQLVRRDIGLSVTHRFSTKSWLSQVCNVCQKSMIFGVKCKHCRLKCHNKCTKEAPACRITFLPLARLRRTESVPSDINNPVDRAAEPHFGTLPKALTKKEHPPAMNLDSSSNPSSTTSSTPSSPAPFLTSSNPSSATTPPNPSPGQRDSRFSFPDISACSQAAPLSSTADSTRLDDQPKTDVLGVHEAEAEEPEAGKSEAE
The description is as above.

In assay [4] the target is T1, Flag-tagged wild-type KSR1 (kinase suppressor of Ras 1). The assay can be described thus: proximity ligation; transfected HeLa cells, fixed and permeabilised; starved or EGF-treated.
A further assay has as its target T3, Flag-tagged KSR1 C809Y (UniProt Q61097).
T3 sequence: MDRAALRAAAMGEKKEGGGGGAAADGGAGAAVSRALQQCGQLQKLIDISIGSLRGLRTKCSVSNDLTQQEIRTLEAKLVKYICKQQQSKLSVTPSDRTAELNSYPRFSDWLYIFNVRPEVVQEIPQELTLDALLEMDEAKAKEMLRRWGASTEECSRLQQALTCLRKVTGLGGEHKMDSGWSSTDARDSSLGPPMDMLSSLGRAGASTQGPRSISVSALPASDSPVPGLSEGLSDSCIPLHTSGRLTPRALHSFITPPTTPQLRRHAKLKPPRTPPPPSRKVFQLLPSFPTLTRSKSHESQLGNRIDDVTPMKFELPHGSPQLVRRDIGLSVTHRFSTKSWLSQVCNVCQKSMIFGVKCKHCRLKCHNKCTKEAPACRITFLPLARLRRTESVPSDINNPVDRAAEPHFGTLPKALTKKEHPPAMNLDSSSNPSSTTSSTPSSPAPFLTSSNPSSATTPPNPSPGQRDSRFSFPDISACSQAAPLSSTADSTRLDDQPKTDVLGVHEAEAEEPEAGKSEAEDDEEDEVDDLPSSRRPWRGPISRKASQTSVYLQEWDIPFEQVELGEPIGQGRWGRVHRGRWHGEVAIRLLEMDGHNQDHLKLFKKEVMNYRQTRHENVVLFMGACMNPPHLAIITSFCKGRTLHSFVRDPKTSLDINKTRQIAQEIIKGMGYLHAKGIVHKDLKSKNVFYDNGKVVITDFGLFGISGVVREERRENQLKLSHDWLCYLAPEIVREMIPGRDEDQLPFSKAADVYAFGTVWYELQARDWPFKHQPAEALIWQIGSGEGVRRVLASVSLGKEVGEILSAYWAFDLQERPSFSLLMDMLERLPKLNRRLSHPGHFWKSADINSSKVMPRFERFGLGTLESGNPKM
The assay can be described thus: co-IP; HEK293T transfected with Flag-tagged KSR1 constructs (1.5 μg); starved 18 h, EGF 50 ng/ml 5 min or co-transfected HRAS^V12 (APS-2-79 in Fig. 8B); anti-Flag immunoprecipitation, Western blot of associated cellular proteins; no IQGAP1 overexpressed.

A further assay addresses T4, GST-KSR1 301-600 (UniProt Q61097).
T4 sequence: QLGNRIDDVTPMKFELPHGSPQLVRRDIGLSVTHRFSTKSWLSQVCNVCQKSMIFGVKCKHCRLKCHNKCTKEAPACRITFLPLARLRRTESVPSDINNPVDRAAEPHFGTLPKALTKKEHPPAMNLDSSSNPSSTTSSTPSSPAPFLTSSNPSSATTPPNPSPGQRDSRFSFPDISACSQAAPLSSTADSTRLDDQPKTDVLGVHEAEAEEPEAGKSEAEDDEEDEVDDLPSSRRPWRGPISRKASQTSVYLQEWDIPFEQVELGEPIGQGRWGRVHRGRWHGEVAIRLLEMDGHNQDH
The assay can be described thus: pull-down; beads coated with purified GST-KSR1 301-600 incubated with total lysates of HEK293T cells (starved or EGF-stimulated) lysed in MLB buffer; immunoblotting; only the target purified.

The target of assay [5] is endogenous IQGAP1 (human cell lines) (human (endogenous in HEK293T, Cal62, Hth83)) (UniProt P46940). In words: co-IP; endogenous proteins in proliferating Cal62 and Hth83 tumor cell lines; anti-IQGAP1 immunoprecipitation.
Assay [6] shares this target. In words: co-IP; endogenous IQGAP1 or KSR1 immunoprecipitated from HEK293T, starved 18 h or EGF-stimulated (APS-2-79 in Fig. 8C); the other scaffold detected by Western blot; preimmune serum as control.
The target in the next assay is GST-IQGAP1 (UniProt P46940). In words: pull-down; beads coated with GST-IQGAP1 incubated with purified His-KSR1 for 2 hours with rocking at 4°C; washes with PBS, PBS 1% NP-40 and MLB buffer; both purified.

Turning to “BRAF (V-RAF murine sarcoma viral oncogene homologue B) (from UniProt P15056 1-766)”, in [1], the binding result is “binds”.
With “Myc-tagged IQGAP1 (IQ motif-containing guanosine triphosphatase activating protein 1), wild type (from UniProt P46940 1-1657)”, the binding result in [2], in assay [3] and in [4] was “binds” throughout.
In the case of “endogenous IQGAP1 (human cell lines) (from UniProt P46940 1-1657)”, the binding entry (in assay [1]; in the assay with Flag-tagged KSR1 C809Y; with GST-KSR1 301-600) was “binds” in each case.

B1: endogenous KSR1 (human cell lines) (protein, UniProt Q8IVT5 1-923)
chain: MDRAALRAAAMGEKKEGGGGGDAAAAEGGAGAAASRALQQCGQLQKLIDISIGSLRGLRTKCAVSNDLTQQEIRTLEAKLVRYICKQRQCKLSVAPGERTPELNSYPRFSDWLYTFNVRPEVVQEIPRDLTLDALLEMNEAKVKETLRRCGASGDECGRLQYALTCLRKVTGLGGEHKEDSSWSSLDARRESGSGPSTDTLSAASLPWPPGSSQLGRAGNSAQGPRSISVSALPASDSPTPSFSEGLSDTCIPLHASGRLTPRALHSFITPPTTPQLRRHTKLKPPRTPPPPSRKVFQLLPSFPTLTRSKSHESQLGNRIDDVSSMRFDLSHGSPQMVRRDIGLSVTHRFSTKSWLSQVCHVCQKSMIFGVKCKHCRLKCHNKCTKEAPACRISFLPLTRLRRTESVPSDINNPVDRAAEPHFGTLPKALTKKEHPPAMNHLDSSSNPSSTTSSTPSSPAPFPTSSNPSSATTPPNPSPGQRDSRFNFPAAYFIHHRQQFIFPVPSAGHCWKCLLIAESLKENAFNISAFAHAAPLPEAADGTRLDDQPKADVLEAHEAEAEEPEAGKSEAEDDEDEVDDLPSSRRPWRGPISRKASQTSVYLQEWDIPFEQVELGEPIGQGRWGRVHRGRWHGEVAIRLLEMDGHNQDHLKLFKKEVMNYRQTRHENVVLFMGACMNPPHLAIITSFCKGRTLHSFVRDPKTSLDINKTRQIAQEIIKGMGYLHAKGIVHKDLKSKNVFYDNGKVVITDFGLFGISGVVREGRRENQLKLSHDWLCYLAPEIVREMTPGKDEDQLPFSKAADVYAFGTVWYELQARDWPLKNQAAEASIWQIGSGEGMKRVLTSVSLGKEVSEILSACWAFDLQERPSFSLLMDMLEKLPKLNRRLSHPGHFWKSADINSSKVVPRFERFGLGVLESSNPKM
As to B1, the binding result in [5] and in assay [6] was “binds” in each case.

B2: His-KSR1, bacterially expressed, purified, full-length KSR1 (protein, UniProt Q61097 1-873)
chain: MDRAALRAAAMGEKKEGGGGGAAADGGAGAAVSRALQQCGQLQKLIDISIGSLRGLRTKCSVSNDLTQQEIRTLEAKLVKYICKQQQSKLSVTPSDRTAELNSYPRFSDWLYIFNVRPEVVQEIPQELTLDALLEMDEAKAKEMLRRWGASTEECSRLQQALTCLRKVTGLGGEHKMDSGWSSTDARDSSLGPPMDMLSSLGRAGASTQGPRSISVSALPASDSPVPGLSEGLSDSCIPLHTSGRLTPRALHSFITPPTTPQLRRHAKLKPPRTPPPPSRKVFQLLPSFPTLTRSKSHESQLGNRIDDVTPMKFELPHGSPQLVRRDIGLSVTHRFSTKSWLSQVCNVCQKSMIFGVKCKHCRLKCHNKCTKEAPACRITFLPLARLRRTESVPSDINNPVDRAAEPHFGTLPKALTKKEHPPAMNLDSSSNPSSTTSSTPSSPAPFLTSSNPSSATTPPNPSPGQRDSRFSFPDISACSQAAPLSSTADSTRLDDQPKTDVLGVHEAEAEEPEAGKSEAEDDEEDEVDDLPSSRRPWRGPISRKASQTSVYLQEWDIPFEQVELGEPIGQGRWGRVHRGRWHGEVAIRLLEMDGHNQDHLKLFKKEVMNYRQTRHENVVLFMGACMNPPHLAIITSFCKGRTLHSFVRDPKTSLDINKTRQIAQEIIKGMGYLHAKGIVHKDLKSKNVFYDNGKVVITDFGLFGISGVVREERRENQLKLSHDWLCYLAPEIVREMIPGRDEDQLPFSKAADVYAFGTVWYELQARDWPFKHQPAEALIWQIGSGEGVRRVLASVSLGKEVGEILSACWAFDLQERPSFSLLMDMLERLPKLNRRLSHPGHFWKSADINSSKVMPRFERFGLGTLESGNPKM
Turning to B2, the binding entry in the assay with GST-IQGAP1 is recorded as “binds”.
